Data as given in PubChem BioAssay AID1259425 (University of Nebraska Medical Center, 2018).

Assay: 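Find knockdowns that reproduce the gene expression pattern seen when KSR1 is lost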 (primary screen)
Cell system: HCT116 human colon cancer cells
Reagent: siRNA pool against human genes, 50 nM siRNA
Measurement: 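After 50 nM siRNA pool, branched-DNA assay measures six marker transcripts per well, minus blank, normalised to the geometric mean of two housekeeping transcripts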
Scale: BNIP3L mRNA: higher = more BNIP3L transcript after knockdown; NDRG1 mRNA: higher = more NDRG1 transcript after knockdown
The deposit covers about 14,000 reagents; this is an unselected part. Further read-outs or replicates are left out here. No sequences are given here. Not stated in the record: the time to read-out.

How did the screen score PDE4D?
BNIP3L mRNA, set 1: 0.126; NDRG1 mRNA, set 1: 0.177

What is on record for EYA3?
BNIP3L mRNA, set 1: 0.0706; NDRG1 mRNA, set 1: 0.153

What is on record for ECE1?
BNIP3L mRNA, set 1: 0.0894; NDRG1 mRNA, set 1: 0.221

With LAMTOR2, how do the results read?
BNIP3L mRNA, set 1: 0.0747; NDRG1 mRNA, set 1: 0.148

With HOXD9, how do the results read?
BNIP3L mRNA, set 1: 0.115; NDRG1 mRNA, set 1: 0.158

How did the screen score AMBRA1?
BNIP3L mRNA, set 1: 0.0718; NDRG1 mRNA, set 1: 0.191

Copied from the list:
For “BNIP3L mRNA, set 1”, HOXD9 reads 0.115
Under “BNIP3L mRNA, set 1”, LAMTOR2 reads 0.0747

Continued:
What is on record for H4C7?
BNIP3L mRNA, set 1: 0.0927; NDRG1 mRNA, set 1: 0.319

How did the screen score PPP2R5E?
BNIP3L mRNA, set 1: 0.0389; NDRG1 mRNA, set 1: 0.448

With LGALS3BP, how do the results read?
BNIP3L mRNA, set 1: 0.174; NDRG1 mRNA, set 1: 0.0568

For PPA2, what was measured?
BNIP3L mRNA, set 1: 0.0741; NDRG1 mRNA, set 1: 0.0597

For EVI5L, what does the deposit list?
BNIP3L mRNA, set 1: 0.139; NDRG1 mRNA, set 1: 0.273

For EN1, how do the results read?
BNIP3L mRNA, set 1: 0.0875; NDRG1 mRNA, set 1: 0.374
